Earlier results, collected in patent US6641611B2, “Therapeutic coating for an intravascular implant” (priority 2001, dated 2003).
At least one compound was matched to its structure with a doubt left.

Legend:
[1] = test system: IL-2 responsive cell lines; settings: specific IL-2 responsive cell lines
[2] = fixed high dose monotherapy

## CO[C@H]1C[C@@H]2CC[C@@H](C)[C@@](O)(O2)C(=O)C(=O)N2CCCC[C@H]2C(=O)O[C@H]([C@H](C)C[C@@H]2CC[C@@H](O)[C@H](OC)C2)CC(=O)[C@H](C)/C=C(\C)[C@@H](O)[C@@H](OC)C(=O)[C@H](C)C[C@H](C)/C=C/C=C/C=C/1C [rapamycin]
[1]
  inhibition of IL-2 induced proliferation: inhibits
[2]
  prevention of early acute allograft rejection: did not prevent early acute allograft rejection
IL-2 gene expression
  effect on IL-2 gene expression: did not have any effect
